The source of these data is the supplement of paper PMC12067093, “Discovery and optimisation of a covalent ligand for TRIM25 and its application to targeted protein ubiquitination” (Chemical Science, 2025).

Protein sequences, listed by entry. Tags and fused reporters are not part of them. Lines headed by an entry give the natural chain unless they say otherwise; changes in a name come on top.
UniProt Q99704: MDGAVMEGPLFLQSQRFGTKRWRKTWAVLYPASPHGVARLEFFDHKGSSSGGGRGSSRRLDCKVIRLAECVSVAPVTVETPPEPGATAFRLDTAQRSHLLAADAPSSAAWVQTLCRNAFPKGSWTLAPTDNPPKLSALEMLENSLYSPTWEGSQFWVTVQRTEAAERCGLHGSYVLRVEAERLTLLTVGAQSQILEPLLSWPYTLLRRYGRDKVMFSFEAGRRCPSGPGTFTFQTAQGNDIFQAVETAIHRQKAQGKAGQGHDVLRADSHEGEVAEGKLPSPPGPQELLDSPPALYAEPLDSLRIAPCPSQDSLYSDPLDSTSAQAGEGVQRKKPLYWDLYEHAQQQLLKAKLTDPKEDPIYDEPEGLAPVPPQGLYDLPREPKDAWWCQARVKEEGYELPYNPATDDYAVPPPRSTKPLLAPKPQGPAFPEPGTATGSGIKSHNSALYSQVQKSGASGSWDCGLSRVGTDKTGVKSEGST
UniProt Q96BY6: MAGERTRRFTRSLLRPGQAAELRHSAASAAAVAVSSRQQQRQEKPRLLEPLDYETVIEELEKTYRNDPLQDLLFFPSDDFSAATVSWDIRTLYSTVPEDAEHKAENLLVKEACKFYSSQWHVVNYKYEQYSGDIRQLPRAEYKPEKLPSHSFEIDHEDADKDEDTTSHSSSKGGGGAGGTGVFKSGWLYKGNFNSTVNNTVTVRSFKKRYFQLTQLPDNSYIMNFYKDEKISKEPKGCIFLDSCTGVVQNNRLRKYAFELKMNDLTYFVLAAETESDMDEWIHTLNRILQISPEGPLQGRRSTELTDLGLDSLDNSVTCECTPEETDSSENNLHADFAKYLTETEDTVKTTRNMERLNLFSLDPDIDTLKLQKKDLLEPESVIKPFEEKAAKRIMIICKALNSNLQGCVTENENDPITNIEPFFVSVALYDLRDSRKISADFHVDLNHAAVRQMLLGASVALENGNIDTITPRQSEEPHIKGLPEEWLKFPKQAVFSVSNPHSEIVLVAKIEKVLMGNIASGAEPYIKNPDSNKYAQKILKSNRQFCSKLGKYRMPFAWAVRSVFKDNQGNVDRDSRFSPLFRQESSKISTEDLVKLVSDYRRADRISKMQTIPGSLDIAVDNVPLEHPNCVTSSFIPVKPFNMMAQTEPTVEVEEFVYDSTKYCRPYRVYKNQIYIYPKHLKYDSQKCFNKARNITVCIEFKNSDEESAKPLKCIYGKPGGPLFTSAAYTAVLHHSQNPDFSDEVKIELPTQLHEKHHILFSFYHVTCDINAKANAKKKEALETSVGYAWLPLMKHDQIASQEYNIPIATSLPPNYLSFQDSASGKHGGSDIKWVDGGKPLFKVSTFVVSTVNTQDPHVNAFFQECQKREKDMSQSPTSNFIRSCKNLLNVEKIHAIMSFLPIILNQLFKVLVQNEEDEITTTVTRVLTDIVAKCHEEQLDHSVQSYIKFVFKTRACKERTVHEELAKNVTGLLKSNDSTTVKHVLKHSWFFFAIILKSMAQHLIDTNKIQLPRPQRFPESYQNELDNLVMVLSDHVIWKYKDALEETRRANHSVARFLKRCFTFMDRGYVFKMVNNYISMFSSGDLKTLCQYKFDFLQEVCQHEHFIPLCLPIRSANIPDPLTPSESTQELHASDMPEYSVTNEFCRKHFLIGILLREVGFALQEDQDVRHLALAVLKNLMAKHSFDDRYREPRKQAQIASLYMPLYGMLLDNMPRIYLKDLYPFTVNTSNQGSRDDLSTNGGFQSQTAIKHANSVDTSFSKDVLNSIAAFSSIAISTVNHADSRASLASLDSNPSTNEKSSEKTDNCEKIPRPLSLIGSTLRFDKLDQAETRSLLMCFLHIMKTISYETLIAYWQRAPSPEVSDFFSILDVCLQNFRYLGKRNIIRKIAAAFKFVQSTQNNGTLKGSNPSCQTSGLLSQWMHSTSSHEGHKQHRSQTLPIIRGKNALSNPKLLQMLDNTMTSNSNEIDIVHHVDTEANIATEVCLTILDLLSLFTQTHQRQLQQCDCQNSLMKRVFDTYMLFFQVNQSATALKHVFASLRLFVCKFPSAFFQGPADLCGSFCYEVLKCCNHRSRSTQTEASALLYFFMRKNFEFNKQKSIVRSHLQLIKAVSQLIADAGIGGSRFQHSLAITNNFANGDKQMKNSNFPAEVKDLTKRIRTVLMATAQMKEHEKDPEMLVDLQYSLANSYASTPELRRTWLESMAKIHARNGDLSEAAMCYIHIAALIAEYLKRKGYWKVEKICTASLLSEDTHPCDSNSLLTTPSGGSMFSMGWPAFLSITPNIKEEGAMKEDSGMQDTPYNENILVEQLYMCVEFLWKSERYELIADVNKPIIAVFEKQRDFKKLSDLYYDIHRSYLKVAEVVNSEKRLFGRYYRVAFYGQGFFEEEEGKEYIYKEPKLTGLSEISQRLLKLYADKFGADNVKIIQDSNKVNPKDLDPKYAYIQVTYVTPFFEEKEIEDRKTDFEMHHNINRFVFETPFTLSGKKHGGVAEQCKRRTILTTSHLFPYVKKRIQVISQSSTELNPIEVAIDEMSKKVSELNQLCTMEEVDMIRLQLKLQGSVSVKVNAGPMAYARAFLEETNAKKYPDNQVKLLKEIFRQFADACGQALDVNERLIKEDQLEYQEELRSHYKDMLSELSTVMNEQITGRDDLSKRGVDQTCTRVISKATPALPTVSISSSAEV
UniProt Q8NF50: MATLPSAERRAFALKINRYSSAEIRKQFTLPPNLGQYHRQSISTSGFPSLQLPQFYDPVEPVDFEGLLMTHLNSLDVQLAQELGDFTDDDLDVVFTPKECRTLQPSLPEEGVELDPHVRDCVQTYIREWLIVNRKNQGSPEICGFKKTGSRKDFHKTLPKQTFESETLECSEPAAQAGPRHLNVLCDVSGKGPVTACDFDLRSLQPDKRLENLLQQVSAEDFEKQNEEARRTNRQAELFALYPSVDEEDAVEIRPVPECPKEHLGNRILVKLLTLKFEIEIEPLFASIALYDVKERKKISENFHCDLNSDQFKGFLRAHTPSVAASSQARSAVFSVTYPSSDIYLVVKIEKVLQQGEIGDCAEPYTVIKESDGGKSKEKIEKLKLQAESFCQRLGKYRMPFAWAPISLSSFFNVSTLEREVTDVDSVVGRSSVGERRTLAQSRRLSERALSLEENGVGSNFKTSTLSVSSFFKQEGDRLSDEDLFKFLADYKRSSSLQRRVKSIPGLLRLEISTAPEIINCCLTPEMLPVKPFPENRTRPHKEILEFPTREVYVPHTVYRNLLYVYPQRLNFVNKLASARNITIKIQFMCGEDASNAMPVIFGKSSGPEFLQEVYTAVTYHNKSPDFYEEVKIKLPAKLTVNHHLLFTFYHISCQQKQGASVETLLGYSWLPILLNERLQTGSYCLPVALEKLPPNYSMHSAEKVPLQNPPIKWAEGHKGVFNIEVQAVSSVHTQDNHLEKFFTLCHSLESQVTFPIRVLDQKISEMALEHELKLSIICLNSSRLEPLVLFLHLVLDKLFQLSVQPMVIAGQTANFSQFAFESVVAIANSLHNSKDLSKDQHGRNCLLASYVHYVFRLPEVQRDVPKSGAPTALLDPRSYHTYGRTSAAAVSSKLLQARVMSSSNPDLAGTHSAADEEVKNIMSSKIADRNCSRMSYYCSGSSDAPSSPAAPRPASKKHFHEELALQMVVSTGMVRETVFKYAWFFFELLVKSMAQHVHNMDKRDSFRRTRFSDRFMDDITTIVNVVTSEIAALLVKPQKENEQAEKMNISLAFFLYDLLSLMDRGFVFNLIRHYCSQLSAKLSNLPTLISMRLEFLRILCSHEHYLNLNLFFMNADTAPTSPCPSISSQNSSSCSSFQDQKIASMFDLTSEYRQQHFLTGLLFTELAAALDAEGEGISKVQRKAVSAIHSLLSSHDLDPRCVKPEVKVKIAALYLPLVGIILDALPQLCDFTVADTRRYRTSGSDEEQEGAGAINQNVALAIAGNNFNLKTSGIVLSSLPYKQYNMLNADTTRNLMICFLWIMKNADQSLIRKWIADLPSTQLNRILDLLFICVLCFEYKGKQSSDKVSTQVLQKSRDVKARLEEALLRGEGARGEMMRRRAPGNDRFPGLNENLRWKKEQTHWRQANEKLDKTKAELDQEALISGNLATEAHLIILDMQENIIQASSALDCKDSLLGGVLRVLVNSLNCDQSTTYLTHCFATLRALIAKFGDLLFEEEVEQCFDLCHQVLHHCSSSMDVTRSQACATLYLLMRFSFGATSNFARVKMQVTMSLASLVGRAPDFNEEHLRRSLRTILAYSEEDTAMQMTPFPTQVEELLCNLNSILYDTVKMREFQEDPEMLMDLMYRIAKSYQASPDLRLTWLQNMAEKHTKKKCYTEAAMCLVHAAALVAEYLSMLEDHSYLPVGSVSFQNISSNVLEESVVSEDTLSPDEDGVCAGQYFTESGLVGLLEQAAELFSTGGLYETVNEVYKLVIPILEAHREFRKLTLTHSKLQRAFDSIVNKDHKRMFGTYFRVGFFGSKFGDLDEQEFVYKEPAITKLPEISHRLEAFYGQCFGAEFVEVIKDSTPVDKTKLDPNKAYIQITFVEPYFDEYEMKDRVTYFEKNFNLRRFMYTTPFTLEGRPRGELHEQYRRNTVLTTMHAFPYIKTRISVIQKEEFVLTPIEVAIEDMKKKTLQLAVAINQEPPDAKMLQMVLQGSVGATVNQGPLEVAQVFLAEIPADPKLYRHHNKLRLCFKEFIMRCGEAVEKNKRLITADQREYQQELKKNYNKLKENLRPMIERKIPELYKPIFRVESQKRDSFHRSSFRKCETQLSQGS
UniProt Q9H147: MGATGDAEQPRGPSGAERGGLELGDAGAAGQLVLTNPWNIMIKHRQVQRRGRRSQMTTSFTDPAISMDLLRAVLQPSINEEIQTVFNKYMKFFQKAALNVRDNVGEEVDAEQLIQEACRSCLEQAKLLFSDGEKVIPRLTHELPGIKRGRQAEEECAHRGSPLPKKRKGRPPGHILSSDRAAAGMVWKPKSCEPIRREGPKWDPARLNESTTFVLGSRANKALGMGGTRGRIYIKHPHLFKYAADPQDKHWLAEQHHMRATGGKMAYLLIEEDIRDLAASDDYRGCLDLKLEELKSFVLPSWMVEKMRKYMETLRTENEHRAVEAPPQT
UniProt Q9H410: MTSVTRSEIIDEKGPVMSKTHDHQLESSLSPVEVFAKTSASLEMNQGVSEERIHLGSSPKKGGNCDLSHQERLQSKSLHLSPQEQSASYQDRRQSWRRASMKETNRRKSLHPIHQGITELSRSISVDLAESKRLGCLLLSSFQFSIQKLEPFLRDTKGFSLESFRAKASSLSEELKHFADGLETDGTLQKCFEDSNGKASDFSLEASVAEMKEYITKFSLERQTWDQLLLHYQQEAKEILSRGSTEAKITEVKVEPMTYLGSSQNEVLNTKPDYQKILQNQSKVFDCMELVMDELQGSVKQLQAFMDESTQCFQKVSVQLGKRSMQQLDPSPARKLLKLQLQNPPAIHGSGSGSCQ
UniProt Q9UNI6, whole entry, looked up: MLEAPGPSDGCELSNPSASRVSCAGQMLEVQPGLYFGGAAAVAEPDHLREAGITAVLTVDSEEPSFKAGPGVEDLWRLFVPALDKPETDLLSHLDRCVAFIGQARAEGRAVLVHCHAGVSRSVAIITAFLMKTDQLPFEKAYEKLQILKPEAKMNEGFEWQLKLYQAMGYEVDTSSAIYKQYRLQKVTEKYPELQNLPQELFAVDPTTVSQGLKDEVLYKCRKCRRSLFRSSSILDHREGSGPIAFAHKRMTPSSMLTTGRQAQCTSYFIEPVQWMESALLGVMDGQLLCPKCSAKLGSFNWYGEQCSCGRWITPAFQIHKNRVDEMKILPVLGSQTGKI
UniProt Q9BQC3: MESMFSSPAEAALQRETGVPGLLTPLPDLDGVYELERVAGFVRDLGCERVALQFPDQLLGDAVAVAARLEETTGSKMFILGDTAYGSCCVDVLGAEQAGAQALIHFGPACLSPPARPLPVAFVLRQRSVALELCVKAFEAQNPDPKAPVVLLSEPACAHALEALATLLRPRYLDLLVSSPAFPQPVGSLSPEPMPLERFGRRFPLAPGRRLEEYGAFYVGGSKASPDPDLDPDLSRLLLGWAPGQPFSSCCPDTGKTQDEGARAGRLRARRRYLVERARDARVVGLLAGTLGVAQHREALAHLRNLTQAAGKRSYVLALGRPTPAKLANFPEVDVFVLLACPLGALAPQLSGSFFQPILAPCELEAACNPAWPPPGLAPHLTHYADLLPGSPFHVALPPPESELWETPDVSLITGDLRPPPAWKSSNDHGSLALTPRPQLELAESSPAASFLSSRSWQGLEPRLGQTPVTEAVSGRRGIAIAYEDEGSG
UniProt P23919: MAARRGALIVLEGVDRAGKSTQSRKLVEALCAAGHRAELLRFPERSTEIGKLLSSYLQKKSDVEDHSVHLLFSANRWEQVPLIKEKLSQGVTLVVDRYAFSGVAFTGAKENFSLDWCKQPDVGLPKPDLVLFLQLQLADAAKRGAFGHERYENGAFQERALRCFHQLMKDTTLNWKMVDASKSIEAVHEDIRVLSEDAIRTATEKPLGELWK

This is one part of the list.
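Also: competitive chemoproteomic profiling in live THP-1 cells with an iodoacetamide desthiobiotin (IA-DTB) probe, comparing probe-labelled peptide intensities in compound-treated cells against DMSO-treated controls.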

Compound in the assay: CC1Cc2ccccc2N1C(=O)C1CCCN(C1)C(=O)CCl (mixture of isomers) [TRIM25 ligand 11 (diastereomer mixture)]
Nature of the assay: probe-labelled cysteine peptide fold change vs DMSO (competition) (log2 fold change); higher = less target engagement (more negative = stronger competition). As to conditions: 10 µM; THP-1; incubation time: 4 h.
For “DOK1_Q99704_389_DAWWCQAR (UniProt Q99704)”, the “probe-labelled cysteine peptide fold change” value is -0.102.
Then “DPYD_Q12882_671_SEDSGADALELNLSCPHGMGER (UniProt Q12882)”, with -0.209; and “DOCK10_Q96BY6_936_CHEEQLDHSVQSYIK (UniProt Q96BY6)”, with -0.0686.
As for “DOCK8_Q8NF50_391_LQAESFCQR (UniProt Q8NF50)”, the “probe-labelled cysteine peptide fold change” value is -0.00954.
Then “DNTTIP1_Q9H147_156_QAEEECAHR (UniProt Q9H147)”, with -0.097; and “DSN1_Q9H410_65_GGNCDLSHQER (UniProt Q9H410)”, with 0.0986.
For “DUSP27_Q5VZP5_912_SNSQKPETDTCSSLAVCDHYASGSR (UniProt Q5VZP5)”, the “probe-labelled cysteine peptide fold change” value came out at 0.0943.
Then “DYNC1H1_Q14204_867_SLETCMYDHK (UniProt Q14204)”, with 0.0773; and “DOCK8_Q8NF50_685_LQTGSYCLPVALEK (UniProt Q8NF50)”, with -0.0908.
As for “DYNC1H1_Q14204_2454+2466_CLGSLFSMLHQACR (UniProt Q14204)”, the “probe-labelled cysteine peptide fold change” value is -0.0399.
For “DPYSL2_Q16555_133_SCCDYSLHVDISEWHK (UniProt Q16555)” the value was 0.131; for “EAF2_Q96CJ1_98_ECILIINHDTGECR (UniProt Q96CJ1)”, -0.0897.
As to “DXO_O77932_108_DEEVQERLDHLLCWLLEHR (UniProt O77932)”, the “probe-labelled cysteine peptide fold change” value is 0.0665.
Take “DUSP12_Q9UNI6_115_AVLVHCHAGVSR (UniProt Q9UNI6)”: the “probe-labelled cysteine peptide fold change” value came to 0.171.
On to “EAF1_Q96JC9_86_DCVLIINHDTGEYVLEK (UniProt Q96JC9)”, for which the “probe-labelled cysteine peptide fold change” value turned out to be 0.0346.
“DNMT1_P26358_691_CPNMAMK (UniProt P26358)”: the “probe-labelled cysteine peptide fold change” value was -0.25.
Then “DUSP23_Q9BVJ7_108_TGTMLACYLVK (UniProt Q9BVJ7)”, with -0.0836.
For “DSN1_Q9H410_191_CFEDSNGK (UniProt Q9H410)” the value was 0.115; for “EARS2_Q5JPH6_140_TGAAYPCFCSPQR (UniProt Q5JPH6)”, -0.0787.
Then “DSN1_Q9H410_65_KGGNCDLSHQER (UniProt Q9H410)”, with -0.183; and “DPH2_Q9BQC3_157_APVVLLSEPACAHALEALATLLRPR (UniProt Q9BQC3)”, with -0.0622.
With “DOHH_Q9BU89_242_HECAEALGAIAR (UniProt Q9BU89)”, the “probe-labelled cysteine peptide fold change” value was -0.0923.
Then “DSTN_P60981_46_KCIIVEEGK (UniProt P60981)”, with -0.105.
As for “DYNC1H1_Q14204_2639_TFDHYCEYRR (UniProt Q14204)”, the “probe-labelled cysteine peptide fold change” value was -0.177.
For “DPP9_Q86TI2_259_FTGYWWCPTASWEGSEGLK (UniProt Q86TI2)” the value was -0.024.
Then “DTYMK_P23919_31_KLVEALCAAGHR (UniProt P23919)”, with -0.0503; and “DOK3_Q7L591_323_ERLPELTRPQPCPLPR (UniProt Q7L591)”, with -0.123.
“DOP1B_Q9Y3R5_2199_WAFIPEVDTEGPAFLSDVEENHQECKPHTVR (UniProt Q9Y3R5)”: the “probe-labelled cysteine peptide fold change” value was 0.131.
Then “DPH5_Q9H2P9_161_QNGMHTLCLLDIK (UniProt Q9H2P9)”, with -0.104; and “DOCK10_Q96BY6_1112_FDFLQEVCQHEHFIPLCLPIR (UniProt Q96BY6)”, with 0.0428.
For “DNMT3A_Q9Y6K1_911_EYFACV (UniProt Q9Y6K1)” the value was -0.106; for “DOCK7_Q96N67_1710_SNHAEAAQCLVHSAALVAEYLSMLEDRK (UniProt Q96N67)”, -0.0382; for “DOCK8_Q8NF50_590_IQFMCGEDASNAMPVIFGK (UniProt Q8NF50)”, -0.02.
Then “DOCK11_Q5JSL3_1641_NGDFSEAAMCYVHVAALVAEFLHR (UniProt Q5JSL3)”, with -0.41; and “DOT1L_Q8TEK3_1075_GDCVPSHGQDSR (UniProt Q8TEK3)”, with -0.0176.
